Data as given in PMC11525306.
These are yes or no findings as the source states them, for the method shown. Binding seen in cells or lysates may run through a third protein. Some entries that bind do so weakly or less than the wild type.

Sequences of proteins named here, by UniProt entry; tags and fusion partners are left off.
UniProt P61966: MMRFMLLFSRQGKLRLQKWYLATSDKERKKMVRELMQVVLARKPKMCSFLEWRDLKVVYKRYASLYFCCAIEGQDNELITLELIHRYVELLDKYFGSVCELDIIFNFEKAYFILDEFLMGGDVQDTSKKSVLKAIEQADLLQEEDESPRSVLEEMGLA
UniProt O43747: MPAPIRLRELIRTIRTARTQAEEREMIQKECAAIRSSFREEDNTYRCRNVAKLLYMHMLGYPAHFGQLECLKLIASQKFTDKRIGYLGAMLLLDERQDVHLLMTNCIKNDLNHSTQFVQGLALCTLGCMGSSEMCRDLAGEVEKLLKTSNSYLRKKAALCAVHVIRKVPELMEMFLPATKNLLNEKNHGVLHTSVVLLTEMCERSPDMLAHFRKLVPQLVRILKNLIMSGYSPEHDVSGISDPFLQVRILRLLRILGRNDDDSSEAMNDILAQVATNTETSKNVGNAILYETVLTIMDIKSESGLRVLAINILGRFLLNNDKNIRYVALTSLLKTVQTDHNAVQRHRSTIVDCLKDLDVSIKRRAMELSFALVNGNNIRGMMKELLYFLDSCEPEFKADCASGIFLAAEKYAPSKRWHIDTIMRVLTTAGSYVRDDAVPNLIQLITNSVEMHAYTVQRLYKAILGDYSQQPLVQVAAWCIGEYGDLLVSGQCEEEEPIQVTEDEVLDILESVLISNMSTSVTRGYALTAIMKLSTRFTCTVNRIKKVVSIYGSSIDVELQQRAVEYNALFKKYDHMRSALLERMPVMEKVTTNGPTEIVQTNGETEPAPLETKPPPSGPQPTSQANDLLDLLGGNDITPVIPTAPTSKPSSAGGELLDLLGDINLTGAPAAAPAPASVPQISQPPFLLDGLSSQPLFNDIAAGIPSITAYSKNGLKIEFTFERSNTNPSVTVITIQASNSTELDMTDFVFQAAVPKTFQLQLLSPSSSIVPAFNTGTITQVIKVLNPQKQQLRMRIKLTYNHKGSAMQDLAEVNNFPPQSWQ

Target: myc-tagged σ1A WT (AP-1 σ1A subunit with a C-terminal triple-myc tag) (human) (UniProt P61966)
Experiment: co-IP; HEK293T cells transiently transfected with WT or L90P myc-tagged σ1A; cell extracts immunoprecipitated with anti-myc or with anti-γ1, then SDS-PAGE and immunoblotting with anti-γ1 or anti-myc (reciprocal); untransfected cells as control

- binding: binds
Substance: endogenous AP-1 γ1 subunit (from UniProt O43747 1-822)
